Reference: PubChem BioAssay AID1347423 (Functional Genomics Laboratory (NCATS/FGL), 2020)
Screen size: about 52,000 sequences; about 210 (0.4%) were called active.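 Rule for the calls: active = gene whose silencing raises cell survival under the drug, median off-target-corrected z-score across its silencing RNAs 2 or more; inactive = the rest.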 This is one part of the list.

Assay: Resistance to Poly (ADP-Ribose) Polymerase inhibitor: Gene Identification via Genome-wide siRNA Screen
Details: mouse BRCA2 R2336H ES cells, olaparib, CellTiter-Glo viability; active compounds read high
Summary of the method: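 Mouse BRCA2 R2336H ES cells were reverse-transfected with siRNA (20 nM final), treated at 48 h with 500 nM olaparib, and read by CellTiter-Glo after 72 h. Scores: MAD-based z per siRNA, median per gene, seed off-target correction.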

Row | Sequence | z-score
1 | GGAGAUCCCAACCACGGAUTT against Otor | inactive: 0.144
2 | CCCAUAUUAAUUAUGGCGUTT against Hadha | inactive: -0.229
3 | CGUGGGAUUUAAUGAUCAATT against Nid2 | inactive: 0.787
4 | GCUGAAACGAUUUCUUACUTT against Cbfa2t1h | inactive: 1.19
5 | GGGCUUGUGUAAAGUGGAUTT against Kin | inactive: 0.644
6 | GGACAGUAAGGAUAAAAGCTT against Hsd3b3 | inactive: -0.522
7 | GGCAUACAAAUAUUCUUGCTT against Hist3h2bb | inactive: 1.48
8 | CCAUUCAUACCAUACCUGUTT against 3200001F09Rik | inactive: 0.446
9 | CCUUCCUUACCUACGUGAGTT against Nup88 | inactive: 0.288
10 | GGAAGAAACUGUAUGAAAGTT against Mycs | inactive: -0.384
11 | CCCUACAGGAAGUCACUCUTT against Gsdm1 | inactive: 0.232
12 | GCAGUGCACAGAAAUGGAATT against Olfr12 | inactive: 0.0258
13 | GGAAAGAUGUCAAAGAAAUTT against Gnat2 | inactive: 2.35
14 | CCACUUGUAGACUUGAUUUTT against Jag1 | inactive: 0.395
15 | GGAGAAGGAAUAAGUUUUGTT against Synj2bp | inactive: 0.417
16 | GGACAUGUACAGUUUAUUGTT against Cacna1a | inactive: 0.798
17 | GGGUGACCUUUCCAGAUGATT against Cldn13 | inactive: 0.67
18 | GGAAAUAAACACUAUGCAUTT against 2310012P17Rik | inactive: 0.992
19 | GGAAGGAAGCUAAAAAACGTT against C77032 | inactive: -0.285
20 | CCUCAAUAUGAAUAAAGUGTT against 2900024D24Rik | inactive: -1.13
21 | GGCCUCACCUUUUUCUAUUTT against 2410008J05Rik | inactive: 0.682
22 | GCUGUUAACAGCACAACCATT against Slc36a2 | inactive: 0.296

Row | Sequence | z-score
23 | GGAGGCACGAAUUGCUGCUTT against Gadd45gip1 | inactive: -0.434
24 | GACUAUCUCAUUCUCAGCUTT against Olfr1238 | inactive: -0.234
25 | GGCACUAGAAGAGAGGUACTT against 4932416K20Rik | inactive: 0.397
26 | GGCAGCCUCUGAAAUUGCUTT against 1810012H11Rik | inactive: -1.82
27 | GGGAAAGAGUUUUACAAACTT against 4732467L16Rik | inactive: 1.69
28 | GGAAGAAGGCUGGUACUUATT against Lao1 | inactive: -0.0477
29 | CCUAUGGCCAUGAUCCUUATT against Olfr575 | inactive: 0.876
30 | GGUUUAUUCAUUAUUCUCCTT against 8030462N17Rik | inactive: 1.04
31 | GGCUUGCCCUUUAAUAAAATT against 1700011A15Rik | inactive: -1.02
32 | GCUAUUUGCUCAAAGCUGUTT against Spnb3 | inactive: -0.0261
33 | GGUUUCCAUGGUAACGUGGTT against Tns | inactive: 1.17
34 | GGUGUGUUAAUUUCUAGAUTT against Frs2 | inactive: 0.204
35 | GCAACCUGUCCCUUCUUGATT against Olfr225 | inactive: -0.69
36 | GCUGGAUUUGACAUUAUCGTT against Olfr151 | inactive: -0.307
37 | GGAGGGCAUCCUCUUCAAATT against 4930449E07Rik | inactive: 0.0932
38 | GGACCGAAACUCAGGCUGATT against Adra1d | inactive: -0.273
39 | GGUUGUCAAGAGCUCAUACTT against 1110002N22Rik | inactive: -0.32
40 | GGCCCUCUAUGAGUAUCUGTT against Olfr536 | inactive: 0.128
41 | GGCCAGUGUAUUUGACCUGTT against Slc22a18 | inactive: 0.946
42 | GGGUUUAGACUGAGAAAUATT against Eif3s2 | inactive: -2.3
43 | CCCUUUUGUGACCUUGUUATT against Scoc | inactive: -0.163
44 | CCCUGUCAAAAAAGUGGCCTT against Olfr1151 | inactive: 1.13

A second format for part of the listing above.
Row	Sequence	z-score
30	GGUUUAUUCAUUAUUCUCCTT against 8030462N17Rik	inactive: 1.04
34	GGUGUGUUAAUUUCUAGAUTT against Frs2	inactive: 0.204
38	GGACCGAAACUCAGGCUGATT against Adra1d	inactive: -0.273
41	GGCCAGUGUAUUUGACCUGTT against Slc22a18	inactive: 0.946

Carrying on:

Row | Sequence | z-score
45 | GGAGUGGAAAAAGUGACCATT against Cox4i2 | inactive: -1.16
46 | CCAAGCCUCCAAUGGUCAGTT against Stat6 | inactive: 0.687
47 | GGAGACUACCAGGACAAUATT against 0610006I08Rik | inactive: 0.775
48 | GGCAUGGAAACUGUUUUGCTT against Olfr677 | inactive: -0.186
49 | GGUGUCUGUUUGCCAUCUUTT against 1700056P18Rik | inactive: -0.276
50 | CCUUCCACCAACAAAAGCCTT against Hsh2d | inactive: -1.17
51 | GGAUGCUUACCAAAGGAUATT against Mrps18a | inactive: -0.129
52 | CCACACAACAAAAAAGUUGTT against Gm1008 | inactive: -0.235
53 | GGCAAGAUCCUAGCAUCCGTT against Srisnf2l | inactive: 0.624
54 | GUCCGAGUAGGUGAUACAATT against Gm638 | inactive: -0.441
55 | GGUCGACAGAUCAAGCCUUTT against Psmb3 | inactive: -3.6
56 | GGAAUUUCUUCUGAAUGUUTT against Bach2 | inactive: -2.66
57 | GGUCAAGAACAAUUCCAAGTT against Itih4 | inactive: -0.475
58 | GGUAAACAUGUCUAUGACUTT against Fpr-rs7 | inactive: 0.263
59 | GUUUGGCUCACUGUGCUGGTT against Gja12 | inactive: 1.88
60 | GGUGGCUGUUCUUUUGACGTT against Ptprt | inactive: 0.207
61 | GCACUUCACACUUAGGGUGTT against Gm644 | inactive: 0.52
62 | GGCUCUGUAUCGGAAGGCUTT against Zc3hdc7 | inactive: 1.3
63 | GGAGCUAAACAACUUAAGATT against BC018472 | inactive: -0.115
64 | GGAGCCAGUGACAAUAAAUTT against Mata2 | inactive: 0.574
65 | GGAAUUCAGUAGGUGGUCUTT against Rab39b | inactive: 0.227
66 | CCAACGAAGCCAAUAAAUGTT against 4930479M11Rik | inactive: -0.488
